Results are given in words; binding and its absence hold for the method and conditions named. In cells and extracts the contact can be indirect. Here binding means that the protein was enriched with, or labelled near, the bait; the list need not be complete.
Target: T1, UBAC2, endogenous (human (endogenous in HeLa, THP-1, HT-29)) (UniProt Q8NBM4)
T1 sequence: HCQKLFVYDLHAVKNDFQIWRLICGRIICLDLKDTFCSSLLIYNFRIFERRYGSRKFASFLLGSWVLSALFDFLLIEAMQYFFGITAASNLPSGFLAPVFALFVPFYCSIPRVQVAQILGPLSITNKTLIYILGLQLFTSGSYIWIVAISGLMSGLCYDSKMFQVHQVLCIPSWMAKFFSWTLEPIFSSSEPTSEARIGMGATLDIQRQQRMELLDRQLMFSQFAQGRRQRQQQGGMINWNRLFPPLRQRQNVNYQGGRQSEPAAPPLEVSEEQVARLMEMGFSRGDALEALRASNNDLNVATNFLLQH
Assay: affinity purification with mass spectrometry; HeLa lysates immunoprecipitated with antibody against UBAC2; eluates resolved by SDS-PAGE, trypsin digest, LC-MS/MS (Q Exactive)

By UniProt entry, the sequences of proteins in these tests, tags left out.
UniProt Q7KZI7: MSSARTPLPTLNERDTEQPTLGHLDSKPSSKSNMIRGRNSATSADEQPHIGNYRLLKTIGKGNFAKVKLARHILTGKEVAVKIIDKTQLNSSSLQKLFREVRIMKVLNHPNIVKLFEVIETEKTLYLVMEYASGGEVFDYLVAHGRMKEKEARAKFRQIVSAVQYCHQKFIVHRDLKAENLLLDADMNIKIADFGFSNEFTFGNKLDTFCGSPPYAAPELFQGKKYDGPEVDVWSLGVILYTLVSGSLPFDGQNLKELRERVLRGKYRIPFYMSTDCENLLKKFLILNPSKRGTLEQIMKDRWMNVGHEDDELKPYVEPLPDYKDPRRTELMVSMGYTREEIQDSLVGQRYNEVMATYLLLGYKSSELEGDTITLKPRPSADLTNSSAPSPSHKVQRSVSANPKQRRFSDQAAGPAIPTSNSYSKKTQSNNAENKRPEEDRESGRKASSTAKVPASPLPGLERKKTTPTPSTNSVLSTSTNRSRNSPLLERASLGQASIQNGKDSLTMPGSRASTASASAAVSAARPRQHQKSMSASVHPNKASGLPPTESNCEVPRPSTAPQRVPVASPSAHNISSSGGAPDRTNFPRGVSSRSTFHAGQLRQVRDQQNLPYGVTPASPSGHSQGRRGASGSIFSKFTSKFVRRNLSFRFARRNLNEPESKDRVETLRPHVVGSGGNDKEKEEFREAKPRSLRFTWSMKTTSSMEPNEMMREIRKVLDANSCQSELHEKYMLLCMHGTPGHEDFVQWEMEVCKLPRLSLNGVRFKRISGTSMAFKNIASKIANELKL

binding: binds
Substance: microtubule affinity-regulating kinase 2 (MARK2), endogenous (from UniProt Q7KZI7 1-788) (enzyme)

Reference: article PMC11535055, “ER-phagy restrains inflammatory responses through its receptor UBAC2” (The EMBO Journal, 2024)
